# The list shows a part of the results. Single values are uncertain here, since repeats match poorly.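 Fusion between ACE2-bearing and full-length-spike-bearing U2OS cells was measured by imaging as the percentage of nuclei with both cell types' fluorescent markers. An inhibitory hit is a non-toxic compound whose fusion z-score is below -3, more than three standard deviations beneath the plate's DMSO wells.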
# Test system: U2OS ACE2 x SARS-CoV-2 spike co-culture
# Assay: cell-cell fusion (fraction fused) z-score vs plate DMSO control; higher = more fusion
# Settings: 30 µM; 5 h; toxicity class: non-toxic, passed QC
row,Structure (SMILES),cell-cell fusion (z-score)
1,Cc1nc2n(c(=O)c1CCN1CCC(c3noc4cc(F)ccc34)CC1)CCCC2,inactive: 1.88
2,CC(=O)O.Cc1cc2c(C(C)C)c(O)c(O)c(C=O)c2c(O)c1-c1c(C)cc2c(C(C)C)c(O)c(O)c(C=O)c2c1O,active: -5.38
3,Cl.N=c1ccn2c(n1)OC1[C@@H](O)[C@@H](CO)O[C@H]12 (some centres undefined) [Ancitabine hydrochloride],inactive: 1.66
4,Br.CCCN(CCC)[C@@H]1CCc2ccc(O)cc2C1 [R-(+)-7-Hydroxy-DPAT hydrobromide],inactive: -2.69
5,COCCc1ccc(OCC(O)CNC(C)C)cc1.COCCc1ccc(OCC(O)CNC(C)C)cc1.O=C(O)[C@H](O)[C@@H](O)C(=O)O (centres undefined) [Metoprolol tartrate],inactive: 2.73
6,CC(C)NCC(O)COc1cccc2[nH]ccc12 (centres undefined),inactive: 0.298
7,CC(C)NCC(O)COc1cccc2[nH]ccc12 (centres undefined) [Pindolol],inactive: 0.689
8,CCCSc1ccc2nc(NC(=O)OC)[nH]c2c1 [Albendazole],inactive: 3.02
9,N[C@@H](CCC(=O)N[C@H](CSN=O)C(=O)NCC(=O)O)C(=O)O [S-Nitrosoglutathione],inactive: 2.48
10,COc1ccc(OCC2c3cc(OC)c(OC)cc3CCN2C(=O)c2cccc(Cl)c2)cc1 (centres undefined),inactive: -2.42
11,CC(=O)Oc1ccc(C(c2ccc(OC(C)=O)cc2)c2ccccn2)cc1,inactive: 1.37
12,CCCN(CCc1ccccc1)C1CCc2c(O)cccc2C1.Cl (racemic) [(±)-PPHT hydrochloride],inactive: 0.633
13,Cc1ccccc1C(=O)Nc1ccc(C(=O)N2CCCC(O)c3cc(Cl)ccc32)c(C)c1 (centres undefined) [Tolvaptan],inactive: 1.42
14,C=C1[C@H](CO)[C@@H](O)C[C@@H]1n1cnc2c(=O)[nH]c(N)nc21 [Entecavir],inactive: 2.51
15,Nc1nc(Cl)nc2c1ncn2[C@H]1C[C@H](O)[C@@H](CO)O1 [Cladribine],inactive: 0.435
16,CC(=O)N(CC(O)CO)c1c(I)c(C(=O)NCCO)c(I)c(C(=O)NCC(O)CO)c1I (centres undefined),inactive: 1.86
17,O=c1oc2c(O)c(O)cc3c(=O)oc4c(O)c(O)cc1c4c23,inactive: 1.49
18,O=C1c2ccccc2-c2nc3nonc3nc21,inactive: 0.176
19,C=C1CC2OC2(C)CC[C@@H]2[C@@H]1CC2(C)C (some centres undefined),inactive: 1.93
20,Cc1ccc(O)c(N=Nc2ccccc2)n1,inactive: 0.803
21,CN(C)c1nc(N(C)C)nc(N(C)C)n1,inactive: 3.77
22,CN(C)c1nc(N(C)C)nc(N(C)C)n1 [Altretamine],inactive: 2.04
23,COC(=O)CCC(=O)CN.Cl [Methyl Aminolevulinate Hydrochloride],inactive: 0.704
24,Cl.OC(c1cc(C(F)(F)F)nc2c(C(F)(F)F)cccc12)C1CCCCN1 (centres undefined),inactive: 2.61
25,OC[C@@H](O)[C@@H](O)[C@@H](O)[C@H](O)[C@@H](O)CO,inactive: 2.62

row,Structure (SMILES),cell-cell fusion (z-score)
1,CN[C@H](CC(=O)O)C(=O)O,inactive: 2.95
2,CN[C@H](CC(=O)O)C(=O)O [N-Methyl-D-aspartic acid],inactive: 2.93
3,O=C1/C(=C/c2cccs2)CCC/C1=C\c1cccs1,inactive: 3.29
4,Br.CC[C@H]1CN2CCC1C[C@@H]2[C@H](O)c1ccnc2ccc(OC)cc12.O (some centres undefined),inactive: 2.78
5,COc1ccc2cc([C@H](C)C(=O)[O-])ccc2c1.[Na+] [(-)-Naproxen sodium],inactive: 2.43
6,CCOC(=O)O[C@]1(C(=O)OCCl)CC[C@H]2[C@@H]3CCC4=CC(=O)C=C[C@]4(C)[C@H]3[C@@H](O)C[C@@]21C [Loteprednol etabonate],inactive: 3.42
7,NS(=O)(=O)Cc1noc2ccccc12 [Zonisamide],inactive: 2.31
8,CCCCCN(C)CCC(O)(P(=O)([O-])O)P(=O)(O)O.[Na+] [Ibandronate sodium],inactive: 2.26
9,Nc1ccc(C(=O)NCC(=O)O)cc1 [4-Aminohippuric Acid],inactive: 3.07
10,"CCCS(=O)(=O)Nc1ccc(F)c(C(=O)c2c[nH]c3ncc(-c4ccc(Cl)cc4)cc23)c1F [Vemurafenib (PLX4032, RG7204)]",inactive: 1.59
11,CCCS(=O)(=O)Nc1ccc(F)c(C(=O)c2c[nH]c3ncc(-c4ccc(Cl)cc4)cc23)c1F [Vemurafenib (PLX4032)],inactive: 2.07
12,O=C(O)c1ccc(-n2nc(-c3ccccc3O)nc2-c2ccccc2O)cc1 [Deferasirox],inactive: 1.98
13,Nc1nc(=O)c2nc(CNc3ccc(C(=O)N[C@@H](CCC(=O)O)C(=O)O)cc3)cnc2[nH]1 [Folic acid],inactive: 3.65
14,COC(=O)C(N)CS.Cl (centres undefined),inactive: 1.75
15,Cc1ccc(S(=O)(=O)NC(=O)NN2CCCCCC2)cc1 [Tolazamide],inactive: 1.9
16,CC(C)(CO)Cc1cc(C(C)(C)C)c(O)c(C(C)(C)C)c1,inactive: 3.06
17,O=S(=O)([O-])NC1CCCCC1.[Na+],inactive: 2.95
18,Cc1cc(C(C)(C)C)c(O)c(C(C)(C)C)c1,inactive: 3.46
19,CNCCCC12CCC(c3ccccc31)c1ccccc12.Cl [Maprotiline hydrochloride],inactive: 0.221
20,O=C(c1cc(Cc2n[nH]c(=O)c3ccccc23)ccc1F)N1CCN(C(=O)C2CC2)CC1 [Olaparib (AZD2281)],inactive: 2.18
21,CCCCCCCCCc1ccc(OCCOCCOCCOCCOCCOCCOCCOCCOCCO)cc1,inactive: 2
22,COC(c1ccccc1)(c1ccccc1)[C@H](Oc1nc(C)cc(C)n1)C(=O)O [Ambrisentan],inactive: 2.48
23,Cc1cccc(C)c1NC(=O)C(C)N.Cl (centres undefined) [Tocainide hydrochloride],inactive: -0.451
24,Cc1cccc(C)c1NC(=O)C(C)N.Cl (centres undefined),inactive: 0.723

# Quoted at random: two records from the list.
row,Structure (SMILES),cell-cell fusion (z-score)
20,O=C(c1cc(Cc2n[nH]c(=O)c3ccccc23)ccc1F)N1CCN(C(=O)C2CC2)CC1 [Olaparib (AZD2281)],inactive: 2.18
10,"CCCS(=O)(=O)Nc1ccc(F)c(C(=O)c2c[nH]c3ncc(-c4ccc(Cl)cc4)cc23)c1F [Vemurafenib (PLX4032, RG7204)]",inactive: 1.59

# Reference: the supplement of paper PMC8104966
